PubChem BioAssay AID504764 | Drosophila RNAi Screening Center | 2011
Test: 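Genome-wide screen for regulators of Notch-driven gene expression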 (primary screen). System: Drosophila Kc167 cells. Reagent: long dsRNA against Drosophila genes. Time to read-out: about 5 days (4 days dsRNA, then 24 h after transfection). Conditions: transfection of constitutively active membrane-tethered Notch lacking the extracellular domain, read 24 h later. Measured: 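Firefly luciferase from an E(spl)m3 reporter with active Notch, plus control-promoter and uninduced reporter wells for normalisation; unnormalised counts, duplicate wells a and b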. Scale: induced reporter light, run 1, well a and induced reporter light, run 1, well b: higher = more light from the Notch target reporter with active Notch; control promoter light, run 1, well a and control promoter light, run 1, well b: higher = more light from the viral control promoter (cell number, transfection, viability); uninduced reporter light, run 1, well a: higher = more light from the Notch target reporter without active Notch. Rule for the call: 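Wells with low control signal or poorly matching duplicates excluded; duplicates averaged; per source plate, z beyond ±2 for induced/control log2 ratio or beyond ±1.8 for induced/uninduced marks a hit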. Meaning of the calls: active = modifier hit (raised or lowered Notch signal); inactive = not a hit.
The deposit covers about 22,000 reagents; this is a random part of those with a known target gene and a result. In the full data, 403 (1.9%) got an active call. 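Unnormalised raw counts per well; ratio z-scores behind the hit calls and whether each hit raises or lowers signal are not deposited.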 A number with no mark means an inactive call. A plus sign joins genes that one reagent is predicted to hit. No sequences are given here. Not stated in the record: the amount of reagent.

CG15578 scored induced reporter light, run 1, well a = 1.31e5; induced reporter light, run 1, well b = 1.51e5; control promoter light, run 1, well a = 2.88e5; control promoter light, run 1, well b = 2.66e5; uninduced reporter light, run 1, well a = 11300. Tsp33B gave induced reporter light, run 1, well a = 1.67e5; induced reporter light, run 1, well b = 1.85e5; control promoter light, run 1, well a = 1.02e5; control promoter light, run 1, well b = 1.29e5; uninduced reporter light, run 1, well a = 19780. Against Cyp4d21 the deposit lists induced reporter light, run 1, well a = 1.80e5; induced reporter light, run 1, well b = 1.62e5; control promoter light, run 1, well a = 1.81e5; control promoter light, run 1, well b = 1.92e5; uninduced reporter light, run 1, well a = 15530. After knock-down of Qsox1, the record shows induced reporter light, run 1, well a = 93435 (active); induced reporter light, run 1, well b = 1.05e5; control promoter light, run 1, well a = 86740; control promoter light, run 1, well b = 95150; uninduced reporter light, run 1, well a = 8725. After knock-down of Atg10 + CG12822, the screen gave induced reporter light, run 1, well a = 2.53e5; induced reporter light, run 1, well b = 2.24e5; control promoter light, run 1, well a = 2.99e5; control promoter light, run 1, well b = 2.86e5; uninduced reporter light, run 1, well a = 19050. After knock-down of CG15651, the screen gave induced reporter light, run 1, well a = 48655; induced reporter light, run 1, well b = 41785; control promoter light, run 1, well a = 33400; control promoter light, run 1, well b = 46760; uninduced reporter light, run 1, well a = 1970.

Against Fkbp39, the entry reads induced reporter light, run 1, well a = 1.24e5; induced reporter light, run 1, well b = 1.18e5; control promoter light, run 1, well a = 88180; control promoter light, run 1, well b = 81640; uninduced reporter light, run 1, well a = 10320.

Limited to “induced reporter light, run 1, well a”, for 2 of the entries above:
Tsp33B	1.67e5
Cyp4d21	1.80e5

Continued.
After knock-down of CG17493 the results were induced reporter light, run 1, well a = 25190; induced reporter light, run 1, well b = 24432; control promoter light, run 1, well a = 20320; control promoter light, run 1, well b = 23515; uninduced reporter light, run 1, well a = 1605. CG13243 showed induced reporter light, run 1, well a = 1.65e5; induced reporter light, run 1, well b = 1.97e5; control promoter light, run 1, well a = 1.88e5; control promoter light, run 1, well b = 2.18e5; uninduced reporter light, run 1, well a = 13300. PDZ-GEF gave induced reporter light, run 1, well a = 1.54e5; induced reporter light, run 1, well b = 1.34e5; control promoter light, run 1, well a = 1.54e5; control promoter light, run 1, well b = 2.18e5; uninduced reporter light, run 1, well a = 11750. Rbbp5 + CG6434 (retired record) gave induced reporter light, run 1, well a = 74170; induced reporter light, run 1, well b = 85955; control promoter light, run 1, well a = 69195; control promoter light, run 1, well b = 61840; uninduced reporter light, run 1, well a = 5320. Osi14 gave induced reporter light, run 1, well a = 98780; induced reporter light, run 1, well b = 1.38e5; control promoter light, run 1, well a = 1.83e5; control promoter light, run 1, well b = 1.32e5; uninduced reporter light, run 1, well a = 7505.
